Screening data, single-dose tests

Chains of the proteins cited; added tags and fusions are not shown. Residues count along the entry.
UniProt Q4DA54, 1-478: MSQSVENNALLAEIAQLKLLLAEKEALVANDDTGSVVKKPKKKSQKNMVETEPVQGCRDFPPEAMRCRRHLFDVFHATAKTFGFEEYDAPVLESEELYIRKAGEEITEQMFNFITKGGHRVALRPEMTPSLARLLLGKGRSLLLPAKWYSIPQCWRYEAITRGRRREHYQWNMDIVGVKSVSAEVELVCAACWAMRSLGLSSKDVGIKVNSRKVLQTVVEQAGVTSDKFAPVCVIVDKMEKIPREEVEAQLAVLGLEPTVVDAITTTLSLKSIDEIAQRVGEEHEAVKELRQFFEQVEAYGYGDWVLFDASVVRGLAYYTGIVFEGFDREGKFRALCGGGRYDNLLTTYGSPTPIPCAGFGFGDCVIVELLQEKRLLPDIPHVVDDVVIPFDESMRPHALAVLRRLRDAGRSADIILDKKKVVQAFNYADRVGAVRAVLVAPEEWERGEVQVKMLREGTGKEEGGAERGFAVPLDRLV

Measurements from “University of Dundee, Small-Polar-MMV Screening Library” (2021), ChEMBL document CHEMBL3988442.

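Enzyme assay of histidyl-tRNA synthetase; the read-out is not stated. Target: Histidine-tRNA ligase, Trypanosoma cruzi CL Brener (UniProt Q4DA54). Compounds at 30 µM. The record gives no direction; compounds that gave an IC50 in retests scored well above the rest, so higher reads as stronger inhibition. Size under these conditions: about 69,000 compounds, about 31 of them at 50% or above in at least one test.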

Results are given as percent effect.
How 0% and 100% were set is not recorded. Most values in the screen are low, and negative values occur.
This is an unselected part of the compounds tested.

- CN1CCN(C2CCN(Cc3noc(C(C)(C)C)n3)CC2)C1=O | 6.186%
- COCCN(Cc1cnn(C)c1)C(=O)C1CCC(=O)N(C2CCCC2)C1 (centres unmarked) | 9.231%
- COCCN1CCC2(CCC1=O)CN(c1ccnc(SC)n1)CCN2C (centres unmarked) | 11.17%
- CCN(CC(=O)N(C)C)S(=O)(=O)c1cnc2c(c1)c(C)nn2C | 2.89%
- Cc1ccc(Cl)cc1NC(=O)Cn1cc(C(=O)O)ccc1=O | 6.818%
- O=S(=O)(Cc1ccccc1CN1CC[C@H](CO)[C@H](O)C1)c1ccccc1 | 5.747%
- O=C(NC(c1ccc(Cl)cc1)C(F)(F)F)c1nc(=O)[nH][nH]1 (centres unmarked) | 4.459%
- CC(C)c1noc(CN2CCN(C(=O)c3cccc(F)c3)CC2)n1 | 4.07%
- Cc1nnc(-c2cccc(C#N)c2)n1C1CCN(C2CC2)C1=O (centres unmarked) | 3.483%
- COc1ccc(F)c(NCc2ccc(C(=O)N(C)C)[nH]2)c1 | 6.667%
- CCC(=O)N1CCN(C(=O)Nc2ccc(Cl)cc2)[C@H]2CS(=O)(=O)C[C@H]21 | 4.598%
- CC(C)(C)C(=O)NCCc1ccn(-c2ccccc2)n1 | 2.632%
- CCC1CCCCN1C(=O)Cn1nc(-c2cc(C)oc2C)cc(N)c1=O (centres unmarked) | 6.061%
- Cc1cccc(CN(Cc2ccccn2)Cc2ncc(C(C)(C)C)o2)c1 | 4.706%
- CCN1CCN(S(=O)(=O)c2cnc(NC(C)=O)s2)CC1 | 7.407%
- CCN(CC)S(=O)(=O)c1cc(NC(=O)CCc2cscn2)ccc1C | 1.604%
- Cc1cccc(-c2noc(CN3CCCCC3Cn3cncn3)n2)c1 (centres unmarked) | 6.215%
- Cc1nn(C)cc1-c1ccnc(N(C)Cc2cccs2)n1 | 10.34%
- CCC(C)NC(=O)CCc1ccc(OCC(F)(F)F)c(OC)c1 (centres unmarked) | 3.468%
- COc1ccccc1C1CCN(C(=O)c2ncccc2OC(C)C)C1 (centres unmarked) | 10.34%
- CN([C@@H]1CCC[C@@H](n2ccnc2)[C@@H]1O)S(=O)(=O)c1cn(C)cn1 | 5.747%
- c1csc(-c2noc(CCCN3CCCC3Cn3cncn3)n2)c1 (centres unmarked) | 8.43%
- COCCn1/c(=N\C(=O)CN(C)S(C)(=O)=O)sc2cc(C)ccc21 | 3.415%
- COc1cccc(-n2c(C)cc(C(=O)NCCCC(N)=O)c2C)c1 | 2.857%
- CC(C)CCNC(=O)c1ccc2c(=O)n(-c3ccccc3)cnc2c1 | 8.537%
- O=C(NC1CCCCC1)C1CCCN(C(=O)Nc2ccccn2)C1 (centres unmarked) | 3.804%
- O=C(Nc1ccc2c(c1)OCO2)N1CCN(CCn2cccn2)CC1 | 1.111%
- Cc1ccnc(C(Nc2nccc(-c3ccc(C)nc3C)n2)C2CC2)c1 (centres unmarked) | 2.146%
- CNC(=O)C1Cn2ccnc2C2(CCN(Cc3c(C)noc3C)CC2)O1 (centres unmarked) | 13.73%
- N[C@H]1CN(S(=O)(=O)N2CCCCCC2)C[C@@H]1c1ccccc1 | 1.948%
- Cc1ccc(C)c(CS(=O)(=O)CC(=O)NC(C)c2ccc(F)cc2F)c1 (centres unmarked) | 0%
- O=C(c1cscn1)N1CCC(O)(Cn2ccc3ccncc32)CC1 | 6.742%
- Cn1cnc(S(=O)(=O)N2CCCC2)c1Cl | 4.065%
- CC/N=c1\nc(NCC)nc2n1C(O)(Nc1cc(C)ccc1C)CS2 (centres unmarked) | -1%

Once more, the final 3:

- O=C(c1cscn1)N1CCC(O)(Cn2ccc3ccncc32)CC1 : 6.742%
- Cn1cnc(S(=O)(=O)N2CCCC2)c1Cl : 4.065%
- CC/N=c1\nc(NCC)nc2n1C(O)(Nc1cc(C)ccc1C)CS2 (centres unmarked) : -1%